The results in this text go back to patent US9481636B2, “N-benzylaniline derivative and uses thereof” (Nanjing Medical University, priority 2011, dated 2016).

The subject of the experiment is OGD-injuried neurons (primary cortical neurons). In words: Cell viability assay: LDH release by OGD-injured primary cortical neurons. In kind it is cell-based, mice. The following applies: Mus musculus, Primary cortical neuron; drug concentration 10^−6 M/L; OGD 2 hours, LDH after 8 hours. On the procedure: After primary neurons were cultured for 9 days, the medium was replaced by DMEM high glucose medium containing 1% FBS, serum-starved overnight and then washed twice with OGD culture solution. This OGD culture solution contains DMEM medium, 1% FBS, 1% penicillin/streptomycin and B27, and contains no sugar. Then, the primary neurons were incubated with the test drugs for 30 minutes, OGD culture solution was added into an anaerobic tank and oxygen-deprived for 2 hours. The OGD culture solution was discarded, and replaced by oxygen-saturated DMEM medium containing 1% FBS, 1% penicillin/streptomycin and B27. After 8 hours the culture solution was collected to measure LDH level.
After the primary cortical neurons were treated with various processes, neuronal culture solution in six-well plates was pipetted to a 1.5 mL plastic centrifuge tube; cells were washed three times with PBS solution and each well was added PBS 1000 μl. The cells were freezed and thawed repeated for three times, centrifuged at 12000′ g for 5 minutes at 4° C., and the supernatant was removed for use. The activity of LDH enzyme was determined with 50 μl culture solution and 25 μl supernatant using lactate dehydrogenase kit.
Protective Effects of the Objective Compounds Against Primary Cortical Neuronal Injury Cultured In Vitro (See Table 2)
Background: Release of lactate dehydrogenase indicates damage to the cell membrane.

SMILES strings stand for the structures.

Compound `COC(=O)c1ccc(NCc2cc(Cl)cc(Cl)c2O)cc1OCCC(=O)C1CC2CCC1(C)C2(C)C` (stereo not shown) [ZL006-33, methyl 2-(bornyl-2-carbonylethoxy)-4-(2-hydroxy-3,5-dichlorobenzyl)aminobenzoate] showed an inhibition at 1 µM of 29.9%.

One may read the inhibition as the change of the read-out against control, counted positive when it falls. The low end stands for a response near the control, the high end for a response far below the control.
